Not every detail of the peptide structures is certain; ends, links or a residue may be inferred. Peptide text beside a SMILES is read from it. * marks the point of attachment. X42 = O=C1C=CC(=O)N1CCOCCC(=O)*
Tested on: retinal vascular endothelial nuclei
Experiment: Neovascularization in a rat model of premature retinopathy
Parameters: species or system rats
Conditions: in vivo
Protocol: Using a fluctuating oxygen-induced animal model, newborn rats born naturally on the same day (within 12 h) were randomly divide into three groups: an oxygen model group, an oxygen treatment group and a normal control group. The oxygen model was further divided into three sub-group model groups, and the sub-group model groups and the treatment group were all placed in a semi-closed oxygen chamber made of organic glass; medical oxygen was introduced into the chamber, and the concentration was adjusted to 80%±2% by an oxygen meter; nitrogen was introduced into the oxygen chamber after 24 h, and the oxygen concentration was adjusted to 10%±2% rapidly and maintained for 24 h. […] The oxygen concentration was monitored 8 times a day, and the ambient temperature in the chamber was controlled at 23° C.±2° C. […] Ten sections of each eyeball were randomly taken and stained with hematoxylin eosin, the number of vascular endothelial nuclei that broke through the inner limiting membrane of the retina (only the number of vascular endothelial nuclei closely related to the inner limiting membrane were counted) was counted, and statistics of the average number of cells per section per eyeball was performed. […]

C[C@H](NC(=O)CNC(=O)[C@H](CCCNC(=N)N)NC(=O)CCOCCN1C(=O)C=CC1=O)C(=O)N[C@@H](CC(=O)O)C(=O)N[C@@H](CCCNC(=N)N)C(=O)N[C@@H](C)C(=O)NCC(=O)NCC(=O)NCC(=O)NCC(=O)N[C@@H](CCCNC(=N)N)C(=O)NCC(=O)N[C@@H](CC(=O)O)C(=O)O [X50] (X42-RGADRAGGGGRGD-OH)
Nuclei count (retinal vascular endothelial nuclei, average per section per eyeball): 7.461 ± 1.469
